According to article PMC5052685, “The RNA-binding protein vigilin regulates VLDL secretion through modulation of Apob mRNA translation”:

target: T1, VIGILIN (Homo sapiens) (UniProt Q00341); experiment: EMSA; conditions: text: decreased or no binding for mutated and scrambled sites; 10 nM 32P-RNA, 0-10 uM protein, 250 mM KCl, 5 mM MgCl2, 25 mM Tris-HCl pH 7.5, 10% glycerol, 1 mg/ml acetylated BSA, 1.5 uM yeast tRNA, 25 C, 5 min; 1.2% agarose gel; recombinant protein; residues 1-1268; protein details: His6 (expressed from pETM30-vigilin-His6); label: 5' 32P
T1 sequence (looked up): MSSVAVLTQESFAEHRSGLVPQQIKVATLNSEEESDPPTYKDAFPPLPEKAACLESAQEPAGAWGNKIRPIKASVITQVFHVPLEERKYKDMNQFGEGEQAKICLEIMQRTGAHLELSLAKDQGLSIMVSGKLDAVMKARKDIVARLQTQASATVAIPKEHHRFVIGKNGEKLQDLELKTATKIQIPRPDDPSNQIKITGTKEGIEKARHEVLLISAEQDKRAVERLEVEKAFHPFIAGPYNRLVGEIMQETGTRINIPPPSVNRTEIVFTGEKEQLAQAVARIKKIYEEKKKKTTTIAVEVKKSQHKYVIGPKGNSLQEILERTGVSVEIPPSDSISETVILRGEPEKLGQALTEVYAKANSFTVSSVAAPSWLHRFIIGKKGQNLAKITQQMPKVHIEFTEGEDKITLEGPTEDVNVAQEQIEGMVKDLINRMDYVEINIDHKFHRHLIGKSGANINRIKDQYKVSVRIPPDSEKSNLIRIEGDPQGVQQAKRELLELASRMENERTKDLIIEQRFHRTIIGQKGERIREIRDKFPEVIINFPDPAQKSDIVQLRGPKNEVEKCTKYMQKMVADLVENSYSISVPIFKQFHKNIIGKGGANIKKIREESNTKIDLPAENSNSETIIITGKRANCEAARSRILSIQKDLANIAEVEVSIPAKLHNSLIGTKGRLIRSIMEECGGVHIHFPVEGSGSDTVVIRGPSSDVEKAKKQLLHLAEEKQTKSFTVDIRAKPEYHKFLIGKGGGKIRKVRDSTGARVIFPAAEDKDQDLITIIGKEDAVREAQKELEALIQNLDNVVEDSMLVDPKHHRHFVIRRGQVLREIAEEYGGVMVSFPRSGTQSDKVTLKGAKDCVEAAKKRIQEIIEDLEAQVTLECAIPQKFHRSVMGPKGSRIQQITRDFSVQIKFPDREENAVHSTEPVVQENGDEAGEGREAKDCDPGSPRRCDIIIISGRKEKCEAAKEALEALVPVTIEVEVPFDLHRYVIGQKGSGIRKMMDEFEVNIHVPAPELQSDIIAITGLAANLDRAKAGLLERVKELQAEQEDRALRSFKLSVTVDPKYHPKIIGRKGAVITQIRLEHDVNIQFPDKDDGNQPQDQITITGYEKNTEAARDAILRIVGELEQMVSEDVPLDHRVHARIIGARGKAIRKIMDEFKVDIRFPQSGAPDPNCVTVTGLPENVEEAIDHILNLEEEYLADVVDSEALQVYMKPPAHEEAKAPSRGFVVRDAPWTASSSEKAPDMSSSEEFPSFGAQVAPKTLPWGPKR

Binding result, binds more weakly:
GAUUUAAAUCAACCUAAUUACAGGGC [Apob binding site RRE mutant]
CUAACUAAAUAAUAAUAUUAUUAAGG [fetuin-A binding site RRE mutant]
CGCAACUUUUACAUUCUAUCAUAGCC [fetuin-A binding site scrambled]
CCGGCAAUCAUGCCUUACGAUUAUCC [Apob binding site scrambled]

Construct, isoform or probe ends are uncertain for at least one entry. A weaker result is weaker than the reference pair of the same experiment. At least one verdict rests on a figure or table, not on a statement of the authors. Where a protein sequence is shown, tags need not be part of it.
